# In US20260256923A1, “NEW RECRUITMENT ELEMENT OF UBIQUITIN LIGASE AND USE THEREOF” (SHENZHEN LINGGENE BIOTECH CO., LTD., priority 2023, published 2026):
# Sequences of proteins named here, by UniProt entry; tags and fusion partners are left off. Residues count along the entry.
# UniProt Q00987: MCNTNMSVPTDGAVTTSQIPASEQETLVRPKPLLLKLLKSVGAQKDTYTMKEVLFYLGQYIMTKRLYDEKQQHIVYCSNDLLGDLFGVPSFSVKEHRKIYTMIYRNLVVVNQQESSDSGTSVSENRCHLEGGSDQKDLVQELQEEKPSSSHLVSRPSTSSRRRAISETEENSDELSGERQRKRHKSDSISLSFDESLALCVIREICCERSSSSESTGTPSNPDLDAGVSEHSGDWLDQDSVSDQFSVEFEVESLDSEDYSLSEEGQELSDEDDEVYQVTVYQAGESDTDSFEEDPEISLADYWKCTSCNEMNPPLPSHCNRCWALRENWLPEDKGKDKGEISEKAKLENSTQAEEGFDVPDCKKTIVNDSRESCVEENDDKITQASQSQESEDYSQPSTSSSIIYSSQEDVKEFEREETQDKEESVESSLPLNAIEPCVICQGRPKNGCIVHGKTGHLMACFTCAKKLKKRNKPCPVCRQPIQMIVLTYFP
# UniProt P19338, residues 2-710: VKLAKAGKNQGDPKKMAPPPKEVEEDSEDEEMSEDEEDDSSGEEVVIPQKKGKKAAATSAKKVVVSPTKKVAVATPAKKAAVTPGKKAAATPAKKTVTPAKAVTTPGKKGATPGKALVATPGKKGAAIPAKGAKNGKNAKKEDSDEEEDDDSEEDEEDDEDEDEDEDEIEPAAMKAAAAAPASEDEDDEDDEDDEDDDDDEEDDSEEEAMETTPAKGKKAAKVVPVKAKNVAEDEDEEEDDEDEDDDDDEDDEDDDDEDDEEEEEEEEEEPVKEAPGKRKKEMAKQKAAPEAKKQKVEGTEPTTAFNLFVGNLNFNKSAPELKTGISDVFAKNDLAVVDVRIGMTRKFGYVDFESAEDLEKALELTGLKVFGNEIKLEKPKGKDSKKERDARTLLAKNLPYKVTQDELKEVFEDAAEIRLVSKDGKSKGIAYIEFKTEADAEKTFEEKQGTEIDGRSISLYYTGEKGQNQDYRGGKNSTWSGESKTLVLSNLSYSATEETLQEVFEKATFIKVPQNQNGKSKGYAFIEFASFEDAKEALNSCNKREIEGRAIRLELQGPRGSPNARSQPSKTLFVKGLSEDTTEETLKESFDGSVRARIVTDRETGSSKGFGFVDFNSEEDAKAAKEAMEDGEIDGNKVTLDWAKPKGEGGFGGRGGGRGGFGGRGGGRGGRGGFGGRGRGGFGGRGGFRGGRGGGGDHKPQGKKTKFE
# No constants are given. Whether binding was seen depends on the method and setting. For some assays here: In cells and extracts the contact can be indirect. Some results given as binding are weak or reduced against the parent protein; the word gives no strength.
# Tests used:
# [1] = target: MDM2, endogenous protein in HeLa cervical cancer cell lysate (UniProt Q00987); assay: co-immunoprecipitation from HeLa cell lysate with anti-NCL antibody, western blot for MDM2
# [2] = target: MDM2, endogenous protein in HeLa cervical cancer cell lysate (UniProt Q00987); assay: co-immunoprecipitation from HeLa cell lysate with anti-NCL antibody, western blot (FIG. 1A legend)
# [3] = target: MDM2, endogenous protein in HeLa cervical cancer cell lysate (UniProt Q00987); assay: co-immunoprecipitation from HeLa cell lysate with anti-NCL antibody, western blot (FIG. 1B legend)
# [4] = target: recombinant human MDM2 (purchased from R&D Systems, E3-202-050) (human) (UniProt Q00987); assay: recombinant proteins, immunoprecipitation with anti-NCL antibody, western blot (FIG. 5A legend)
# [5] = target: recombinant human MDM2 (purchased from R&D Systems, E3-202-050) (human) (UniProt Q00987); assay: recombinant proteins mixed (2 ug/mL each), immunoprecipitation with anti-NCL antibody, western blot
binding [1],binding [2],binding [3],binding [4],binding [5],Substance
binds,binds,binds,–,–,"Nucleolin (NCL), endogenous protein in HeLa cervical cancer cell lysate (from UniProt P19338 2-710)"
–,–,–,binds,binds,"recombinant human NCL (purchased from ACROBiosystems, NUL-H5253) (from UniProt P19338 2-710)"
